Reference: US20160310472A1, “PHARMACEUTICAL COMPOSITIONS COMPRISING SULBACTAM AND IMIPENEM” (priority 2013, published 2016)
At least one structure is not confirmed: it was looked up by name or label, or the drawing left a doubt.

System: A. baumannii S-12 strain
Assay: Time-kill study, viable bacterial count in broth, A. baumannii S-12
Format: cell-based, Acinetobacter baumannii
Description: The antibacterial activity of compositions according to the invention against various bacterial strains was investigated. In a typical study, freshly grown cultures were diluted to required cell density (initial starting inoculum) in Brain Heart Infusion broth medium (BD, USA). The antibacterial agents (either alone or in combination) in required concentrations were added into the culture containing medium. The samples were incubated under shaking conditions (120 rpm) at 37° C. Enumeration of viable bacterial count was undertaken, every 2 hours, by diluting in normal saline and plating on to Tryptic Soya Agar plates (BD, USA). The plates were incubated for 24 hours to arrive at a viable bacterial count.

C[C@@H](O)[C@H]1C(=O)N2C(C(=O)O)=C(SCCN=CN)C[C@H]12 [Imipenem]
Decrease in number of colony forming units (in words): not observed
